# Data as given in PubChem BioAssay AID1259254 (NCATS, 2017)
# Purpose: 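Finding genes that stop cells copying their DNA twice in one cycle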 (primary screen)
# Cells: human HCT116 colorectal cancer cells
# Reagents: single siRNA against human genes
# Timing: 3 days
# Detection: 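Imaged Hoechst DNA stain sorts each cell into a cycle phase by DNA amount; per plate, G2 fraction set to 0% for non-targeting and 100% for GMNN siRNA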
# Scale: G2 robust z-score: higher = more G2 cells, more excess DNA replication
# Hit rule: 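An siRNA counts as active if its G2 robust z-score lies at least 5 MADs above the screen median; here such calls match roughly 38% of GMNN control or more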
# This is an unselected part of about 59,000 reagents tested. In the full data, about 1,550 (2.6%) were called active. 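G2 share is only a proxy for re-replication; each gene was hit by three separate siRNAs, and active genes were retested.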 Reagents against one gene are numbered here. Further read-outs or replicates are left out here. Not stated in the record: the amount of reagent.
target gene,reagent no.,G2 robust z-score,outcome
CHD8,1,-0.0289,inactive
CHD8,2,0.846,inactive
CHD8,3,4.06,inactive
FKBP7,1,3.8,inactive
FKBP7,2,-0.681,inactive
FKBP7,3,-0.417,inactive
KRTAP4-4,1,7.4,active
KRTAP4-4,2,1.22,inactive
KRTAP4-4,3,-0.696,inactive
TAF13,1,0.337,inactive
TAF13,2,0.446,inactive
TAF13,3,2.16,inactive
EIF4B,1,1.12,inactive
EIF4B,2,3.91,inactive
EIF4B,3,-0.555,inactive
TANGO2,1,-0.125,inactive
TANGO2,2,0.3,inactive
TANGO2,3,0.151,inactive
ISM1,1,0.434,inactive
ISM1,2,2.49,inactive
ISM1,3,0.314,inactive
SLC6A17,1,1.5,inactive
SLC6A17,2,-0.525,inactive
SLC6A17,3,-0.93,inactive
B4GALNT2,1,2.62,inactive
B4GALNT2,2,7.96,active
B4GALNT2,3,-0.957,inactive
OASL,1,-0.403,inactive
OASL,2,-1.19,inactive
OASL,3,-0.265,inactive
APH1B,1,0.0797,inactive
APH1B,2,4.77,inactive
APH1B,3,2.2,inactive
KIF4B,1,0.132,inactive
KIF4B,2,2.46,inactive
KIF4B,3,1.46,inactive
ZBTB40,1,0.11,inactive
ZBTB40,2,-1.25,inactive
ZBTB40,3,0.554,inactive
SEMA3F,1,1.57,inactive
SEMA3F,2,-0.635,inactive
SEMA3F,3,-0.997,inactive
PCARE,1,-0.00279,inactive
PCARE,2,-0.452,inactive
PCARE,3,0.597,inactive
HBB,1,2.26,inactive
HBB,2,0.252,inactive
HBB,3,3.27,inactive
NPHS2,1,-1,inactive
NPHS2,2,2.78,inactive
NPHS2,3,-1.23,inactive
POU2F3,1,-0.355,inactive
POU2F3,2,-0.746,inactive
POU2F3,3,1.02,inactive
PPP1R13L,1,1.75,inactive
PPP1R13L,2,2.34,inactive
PPP1R13L,3,-0.325,inactive
WFDC2,1,-0.0615,inactive
WFDC2,2,-0.283,inactive
WFDC2,3,-1.41,inactive
P2RY12,1,-0.524,inactive
P2RY12,2,0.502,inactive
P2RY12,3,-0.533,inactive
ANKRD33B,1,0.454,inactive
ANKRD33B,2,-0.658,inactive
ANKRD33B,3,0.652,inactive
TUBB1,1,-1.03,inactive
TUBB1,2,3.27,inactive
TUBB1,3,0.591,inactive
